# Measurements from paper PMC4603797, “The Structural Differences between a Glycoprotein Specific F-Box Protein Fbs1 and Its Homologous Protein FBG3” (PLoS ONE, 2015).
# Results are given in words; binding and its absence hold for the method and conditions named. Some results given as binding are weak or reduced against the parent protein; the word gives no strength.
# B1: murine Fbs1 (of the Skp1–Fbs1 complex) (protein, UniProt Q80UW2 1-297)
# chain: MDGDGDPESVSHPEEASPEEQPEEAGAEASAEEEQLREAEEEEEAEAVEYLAELPEPLLLRVLAELPATELVQACRLVCLRWKELVDGAPLWLLKCQQEGLVPEGSADEERDHWQQFYFLSKRRRNLLRNPCGEEDLEGWSDVEHGGDGWRVEELPGDNGVEFTQDDSVKKYFASSFEWCRKAQVIDLQAEGYWEELLDTTQPAIVVKDWYSGRTDAGSLYELTVRLLSENEDVLAEFATGQVAVPEDGSWMEISHTFIDYGPGVRFVRFEHGGQDSVYWKGWFGARVTNSSVWVEP
# Molecular target: 6xHis-tagged human Skp1 (human) (UniProt P63208)
# Assay: co-purification; F-box protein co-expressed with 6xHis-tagged Skp1 in E. coli; complex purified by Ni-NTA affinity, anion-exchange and gel-filtration chromatography
binder,measurement,value
B1,binding,binds
